Results from the supplement of paper PMC10849652.
The other results are listed elsewhere or left out.

Sequences of proteins named here, by UniProt entry; tags and fusion partners are left off. A change or cut given only in a name is not applied to a line headed by its entry.
UniProt O95870: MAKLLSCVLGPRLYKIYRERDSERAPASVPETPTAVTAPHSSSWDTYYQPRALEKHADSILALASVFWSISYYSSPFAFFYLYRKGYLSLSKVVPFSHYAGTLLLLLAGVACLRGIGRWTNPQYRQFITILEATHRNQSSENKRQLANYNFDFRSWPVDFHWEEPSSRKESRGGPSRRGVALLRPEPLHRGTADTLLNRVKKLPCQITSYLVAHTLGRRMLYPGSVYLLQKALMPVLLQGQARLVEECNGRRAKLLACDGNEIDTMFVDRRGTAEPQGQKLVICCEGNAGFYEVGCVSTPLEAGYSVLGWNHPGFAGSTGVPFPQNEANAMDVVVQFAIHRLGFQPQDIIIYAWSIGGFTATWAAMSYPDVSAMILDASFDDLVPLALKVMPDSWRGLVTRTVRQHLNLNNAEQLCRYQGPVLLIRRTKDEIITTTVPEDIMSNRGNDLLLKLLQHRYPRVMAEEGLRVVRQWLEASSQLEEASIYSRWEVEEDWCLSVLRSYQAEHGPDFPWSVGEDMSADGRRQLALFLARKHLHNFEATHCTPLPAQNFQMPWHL
UniProt Q13685: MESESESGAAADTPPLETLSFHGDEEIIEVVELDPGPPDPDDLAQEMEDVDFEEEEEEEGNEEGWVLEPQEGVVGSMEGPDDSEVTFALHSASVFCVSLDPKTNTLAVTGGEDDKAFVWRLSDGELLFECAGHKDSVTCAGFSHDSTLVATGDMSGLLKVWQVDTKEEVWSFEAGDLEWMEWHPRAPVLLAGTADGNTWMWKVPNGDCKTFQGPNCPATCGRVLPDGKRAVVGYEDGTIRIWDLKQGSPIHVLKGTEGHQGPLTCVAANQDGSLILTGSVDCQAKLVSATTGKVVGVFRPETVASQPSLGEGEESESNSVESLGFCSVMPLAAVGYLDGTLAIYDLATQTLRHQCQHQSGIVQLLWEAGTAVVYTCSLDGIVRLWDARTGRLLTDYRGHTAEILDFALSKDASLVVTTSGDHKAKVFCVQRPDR
UniProt Q8WTS1: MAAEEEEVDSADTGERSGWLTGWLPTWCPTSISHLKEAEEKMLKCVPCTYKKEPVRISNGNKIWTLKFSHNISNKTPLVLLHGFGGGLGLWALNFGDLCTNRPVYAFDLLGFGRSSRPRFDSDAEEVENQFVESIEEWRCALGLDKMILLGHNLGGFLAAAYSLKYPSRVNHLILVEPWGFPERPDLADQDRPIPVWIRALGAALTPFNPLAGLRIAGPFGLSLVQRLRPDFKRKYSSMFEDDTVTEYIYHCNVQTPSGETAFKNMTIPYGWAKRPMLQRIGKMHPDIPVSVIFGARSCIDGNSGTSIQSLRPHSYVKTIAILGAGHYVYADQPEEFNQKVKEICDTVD
UniProt Q6PD74: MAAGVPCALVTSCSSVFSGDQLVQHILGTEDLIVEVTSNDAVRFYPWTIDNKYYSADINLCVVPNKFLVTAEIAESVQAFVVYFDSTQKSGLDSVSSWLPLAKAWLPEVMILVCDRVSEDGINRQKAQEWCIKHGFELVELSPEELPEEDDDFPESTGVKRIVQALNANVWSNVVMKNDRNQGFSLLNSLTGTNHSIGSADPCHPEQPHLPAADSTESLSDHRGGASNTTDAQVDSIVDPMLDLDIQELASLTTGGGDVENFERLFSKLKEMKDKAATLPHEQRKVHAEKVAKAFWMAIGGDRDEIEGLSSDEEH
UniProt Q9ULC5: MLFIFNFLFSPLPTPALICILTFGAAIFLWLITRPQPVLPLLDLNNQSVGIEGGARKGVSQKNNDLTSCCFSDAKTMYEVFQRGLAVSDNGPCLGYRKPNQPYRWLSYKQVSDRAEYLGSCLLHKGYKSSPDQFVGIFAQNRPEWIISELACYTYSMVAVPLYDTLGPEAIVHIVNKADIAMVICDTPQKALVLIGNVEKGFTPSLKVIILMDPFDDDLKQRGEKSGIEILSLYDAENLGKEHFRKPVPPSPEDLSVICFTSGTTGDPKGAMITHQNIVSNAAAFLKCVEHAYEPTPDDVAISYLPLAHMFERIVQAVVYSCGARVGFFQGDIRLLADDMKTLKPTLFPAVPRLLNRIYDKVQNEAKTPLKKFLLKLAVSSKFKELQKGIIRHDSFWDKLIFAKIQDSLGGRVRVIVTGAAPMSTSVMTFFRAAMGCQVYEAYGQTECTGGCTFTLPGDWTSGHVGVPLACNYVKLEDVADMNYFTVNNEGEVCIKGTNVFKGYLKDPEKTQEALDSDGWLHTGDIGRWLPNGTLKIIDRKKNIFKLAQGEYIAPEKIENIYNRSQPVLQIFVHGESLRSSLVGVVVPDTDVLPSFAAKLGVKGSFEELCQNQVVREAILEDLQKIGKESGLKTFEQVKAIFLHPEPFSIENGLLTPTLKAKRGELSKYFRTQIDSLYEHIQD
UniProt Q9BR61: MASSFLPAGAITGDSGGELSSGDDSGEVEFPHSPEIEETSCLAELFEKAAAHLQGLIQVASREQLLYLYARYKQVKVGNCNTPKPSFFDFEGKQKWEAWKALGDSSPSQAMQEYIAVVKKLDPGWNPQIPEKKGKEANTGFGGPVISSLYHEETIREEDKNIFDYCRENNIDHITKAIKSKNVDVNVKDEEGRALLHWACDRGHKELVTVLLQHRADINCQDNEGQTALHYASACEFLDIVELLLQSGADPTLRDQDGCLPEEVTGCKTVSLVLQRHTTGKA
UniProt Q9BTE6: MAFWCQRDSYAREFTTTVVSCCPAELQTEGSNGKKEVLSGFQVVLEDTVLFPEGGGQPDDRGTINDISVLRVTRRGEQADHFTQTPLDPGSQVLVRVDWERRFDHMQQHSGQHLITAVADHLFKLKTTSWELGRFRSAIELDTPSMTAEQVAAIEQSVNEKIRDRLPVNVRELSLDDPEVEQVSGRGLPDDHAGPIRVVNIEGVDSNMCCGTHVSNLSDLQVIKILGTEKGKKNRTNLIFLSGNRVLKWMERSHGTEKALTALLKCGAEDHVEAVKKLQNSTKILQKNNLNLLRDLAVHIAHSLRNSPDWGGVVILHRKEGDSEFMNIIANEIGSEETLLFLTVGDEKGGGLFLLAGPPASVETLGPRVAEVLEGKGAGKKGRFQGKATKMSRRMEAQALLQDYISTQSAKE
UniProt Q8IZY2: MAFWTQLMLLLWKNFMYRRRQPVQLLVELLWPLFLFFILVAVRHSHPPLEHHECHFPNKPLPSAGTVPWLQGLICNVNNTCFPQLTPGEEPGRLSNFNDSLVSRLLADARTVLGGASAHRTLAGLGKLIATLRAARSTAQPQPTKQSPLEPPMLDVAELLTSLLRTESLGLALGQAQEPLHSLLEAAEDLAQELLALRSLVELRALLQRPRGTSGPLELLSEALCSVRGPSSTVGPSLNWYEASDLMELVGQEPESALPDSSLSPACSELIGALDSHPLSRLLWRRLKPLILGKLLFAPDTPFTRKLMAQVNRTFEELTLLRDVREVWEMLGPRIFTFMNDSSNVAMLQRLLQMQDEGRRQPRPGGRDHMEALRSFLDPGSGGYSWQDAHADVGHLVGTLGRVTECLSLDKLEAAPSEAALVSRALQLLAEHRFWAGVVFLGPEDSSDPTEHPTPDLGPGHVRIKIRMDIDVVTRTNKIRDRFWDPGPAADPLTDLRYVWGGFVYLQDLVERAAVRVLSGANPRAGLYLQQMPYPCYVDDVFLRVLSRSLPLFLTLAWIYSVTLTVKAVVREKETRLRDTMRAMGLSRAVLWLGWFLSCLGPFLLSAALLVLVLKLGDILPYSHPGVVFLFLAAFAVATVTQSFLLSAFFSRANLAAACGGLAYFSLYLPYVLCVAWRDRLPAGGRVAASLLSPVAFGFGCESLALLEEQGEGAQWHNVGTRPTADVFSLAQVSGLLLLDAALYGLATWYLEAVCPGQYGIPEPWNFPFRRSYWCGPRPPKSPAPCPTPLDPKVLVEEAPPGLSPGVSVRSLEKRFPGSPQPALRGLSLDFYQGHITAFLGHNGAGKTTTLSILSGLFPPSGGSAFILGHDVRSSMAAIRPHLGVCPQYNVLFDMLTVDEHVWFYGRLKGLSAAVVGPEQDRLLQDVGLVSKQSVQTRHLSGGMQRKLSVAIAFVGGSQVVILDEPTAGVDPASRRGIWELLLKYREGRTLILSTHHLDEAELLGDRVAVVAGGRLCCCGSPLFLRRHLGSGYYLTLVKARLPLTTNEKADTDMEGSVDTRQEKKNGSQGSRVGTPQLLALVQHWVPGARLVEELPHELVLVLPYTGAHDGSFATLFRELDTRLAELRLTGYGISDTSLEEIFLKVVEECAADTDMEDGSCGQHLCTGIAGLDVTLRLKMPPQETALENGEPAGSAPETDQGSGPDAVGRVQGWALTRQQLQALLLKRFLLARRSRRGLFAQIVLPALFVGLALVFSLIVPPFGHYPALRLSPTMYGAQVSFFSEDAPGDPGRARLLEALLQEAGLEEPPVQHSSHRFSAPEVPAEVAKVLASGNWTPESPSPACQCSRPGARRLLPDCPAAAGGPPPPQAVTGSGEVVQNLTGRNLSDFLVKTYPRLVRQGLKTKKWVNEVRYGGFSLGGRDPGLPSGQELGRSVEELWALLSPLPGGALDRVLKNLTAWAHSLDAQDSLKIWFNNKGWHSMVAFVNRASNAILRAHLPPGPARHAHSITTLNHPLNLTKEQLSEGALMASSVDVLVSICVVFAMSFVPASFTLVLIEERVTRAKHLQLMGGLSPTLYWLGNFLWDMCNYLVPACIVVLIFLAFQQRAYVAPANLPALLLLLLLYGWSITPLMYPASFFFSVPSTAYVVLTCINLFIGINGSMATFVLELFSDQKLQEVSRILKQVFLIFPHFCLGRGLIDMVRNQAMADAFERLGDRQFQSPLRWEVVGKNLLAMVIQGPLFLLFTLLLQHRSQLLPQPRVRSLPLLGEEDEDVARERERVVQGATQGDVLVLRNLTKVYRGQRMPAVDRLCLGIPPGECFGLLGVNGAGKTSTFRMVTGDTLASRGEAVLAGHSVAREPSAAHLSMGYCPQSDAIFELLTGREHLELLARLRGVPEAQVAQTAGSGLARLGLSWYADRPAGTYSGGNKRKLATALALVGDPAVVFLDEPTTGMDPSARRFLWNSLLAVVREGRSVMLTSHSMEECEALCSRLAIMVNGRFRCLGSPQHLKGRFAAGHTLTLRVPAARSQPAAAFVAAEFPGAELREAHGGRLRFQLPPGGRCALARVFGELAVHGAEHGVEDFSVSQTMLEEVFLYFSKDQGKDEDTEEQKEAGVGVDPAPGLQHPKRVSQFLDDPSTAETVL
UniProt Q96M93: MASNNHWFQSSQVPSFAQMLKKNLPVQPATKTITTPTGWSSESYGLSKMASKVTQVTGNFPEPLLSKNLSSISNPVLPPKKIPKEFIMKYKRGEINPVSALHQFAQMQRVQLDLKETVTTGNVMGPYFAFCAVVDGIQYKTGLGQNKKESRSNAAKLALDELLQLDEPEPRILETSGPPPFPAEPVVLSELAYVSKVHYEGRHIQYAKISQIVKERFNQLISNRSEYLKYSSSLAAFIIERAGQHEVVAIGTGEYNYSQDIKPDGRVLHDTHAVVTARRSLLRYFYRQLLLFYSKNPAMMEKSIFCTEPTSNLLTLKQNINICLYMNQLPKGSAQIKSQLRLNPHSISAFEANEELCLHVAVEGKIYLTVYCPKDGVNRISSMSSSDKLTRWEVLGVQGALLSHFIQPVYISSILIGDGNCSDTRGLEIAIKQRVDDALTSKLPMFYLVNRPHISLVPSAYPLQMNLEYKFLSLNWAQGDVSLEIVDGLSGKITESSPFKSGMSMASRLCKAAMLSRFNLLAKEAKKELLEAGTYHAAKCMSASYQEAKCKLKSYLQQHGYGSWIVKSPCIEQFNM

How the values were obtained:
Assay in all cases: log2 fold change, soluble protein after heating vs DMSO (PISA); higher = thermal stabilisation; K562 cells, 10 uM, 30 min; active = over 0.2 and 3.5 SD of the protein, either way, in both replicates (recomputed)
[1] = compound: CS(=O)(=O)c1ccc(-c2cnc(N)c(C(=O)Nc3ccccc3)n2)cc1
Method in brief: (§1)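 Quantification of soluble protein used TMTpro 16plex LC-MS/MS, with channel sums equalised. Samples were the supernatant after 21,000xg for 90 min of pooled aliquots from K562 cells (2×10^6 cells/mL) treated with 10 μM compound for 30 min, heated for 3 min over 48°C-58°C, and extracted in PBS with 0.5% NP-40 at 4°C. Values, from duplicates, describe thermal stability against control samples on a log2 fold-change scale.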

[2] = compound: C[C@@H](Oc1cc(-c2cnn(C3CCNCC3)c2)cnc1N)c1c(Cl)ccc(F)c1Cl [crizotinib]
Method in brief: as §1

[3] = compound: C[C@@H]1COCCN1C2=NC(=NC(=C2)C3(CC3)S(=O)(=O)C)C4=C5C=CNC5=CC=C4
Method in brief: as §1

[4] = compound: C[C@H](C1=CC=C(C=C1)C(=O)NC2=C3C=CNC3=NC=C2)N
Method in brief: as §1

[5] = compound: Cc1cc(Nc2cc(CN3CCOCC3)c3nc(C)c(Cc4ccc(Cl)cc4F)n3n2)n[nH]1 [gandotinib]
Method in brief: as §1

[6] = compound: Cc1cc(SCc2sc(-c3ccc(C(F)(F)F)cc3)nc2C)ccc1OCC(=O)O
Method in brief: as §1

[7] = compound: Cc1ccc(-n2nc(C(C)(C)C)cc2NC(=O)Nc2ccc(OCCN3CCOCC3)c3ccccc23)cc1 [doramapimod]
Method in brief: as §1

[8] = compound: Cc1ccc(C(=O)N(CCCN)[C@@H](c2nc3cc(Cl)ccc3c(=O)n2Cc2ccccc2)C(C)C)cc1 [ispinesib]
Method in brief: as §1

[9] = compound: Cc1ccc(NC(=O)c2ccc(CN3CC[C@H](N(C)C)C3)c(C(F)(F)F)c2)cc1Nc1nccc(-c2cncnc2)n1 [bafetinib]
Method in brief: as §1

[10] = compound: Cc1cccc(CC(=O)N2CCc3c2ccc(-c2cn(C)c4ncnc(N)c24)c3F)n1
Method in brief: as §1

[11] = compound: Cc1cn(-c2cc(NC(=O)c3ccc(C)c(Nc4nccc(-c5cccnc5)n4)c3)cc(C(F)(F)F)c2)cn1 [nilotinib]
Method in brief: as §1

[12] = compound: Cc1nc(Nc2n[nH]c3c2CN(C(=O)N[C@H](CN(C)C)c2ccccc2)C3(C)C)c2sccc2n1
Method in brief: as §1

[13] = compound: Cc1nc(Nc2ncc(C(=O)Nc3c(C)cccc3Cl)s2)cc(N2CCN(CCO)CC2)n1 [dasatinib]
Method in brief: as §1

[14] = compound: Cc1ncc(-c2ccnc(Nc3ccc(S(C)(=O)=O)cc3)n2)n1C(C)C
Method in brief: as §1

[15] = compound: Cn1cc(-c2ccc3c(c2)CCN3C(=O)Cc2cccc(C(F)(F)F)c2)c2c(N)ncnc21
Method in brief: as §1

[16] = compound: Cn1cc(-c2ccc3nnc(C(F)(F)c4ccc5ncccc5c4)n3n2)cn1
Method in brief: as §1

[17] = compound: Cn1cncc1[C@@](N)(c1ccc(Cl)cc1)c1ccc2c(c1)c(-c1cccc(Cl)c1)cc(=O)n2C [tipifarnib]
Method in brief: as §1

[18] = compound: FC(F)(F)c1ccc(/C=C/c2nc(COc3ccc(CCCCn4ccnn4)cc3)co2)cc1 [mubritinib]
Method in brief: as §1

[19] = compound: C[C@H](Nc1ncnc2nc[nH]c12)c1cc2cccc(Cl)c2c(=O)n1-c1ccccc1 [duvelisib]
Method in brief: as §1

[20] = compound: Cc1cc(Nc2cc(N3CCN(C)CC3)nc(Sc3ccc(NC(=O)C4CC4)cc3)n2)n[nH]1 [tozasertib]
Method in brief: as §1

With ABHD16A (UniProt O95870) the log2 fold change [1] was inactive: -0.012, the log2 fold change [2] was inactive: 0.277 and the log2 fold change [3] was inactive: 0.029. For the same target, the log2 fold change [4] was inactive: 0.033, the log2 fold change [5] was inactive: 0.158 and the log2 fold change [6] was inactive: 0.012. For the same target, the log2 fold change [7] was inactive: 0.136, the log2 fold change [8] was inactive: 0.125 and the log2 fold change [9] was inactive: 0.132. The log2 fold change [10] was inactive: -0.056, the log2 fold change [11] was inactive: 0.177 and the log2 fold change [12] was inactive: 0.055. For the same target, the log2 fold change [13] was inactive: 0.029, the log2 fold change [14] was inactive: -0.058 and the log2 fold change [15] was inactive: 0.087. The log2 fold change [16] was inactive: -0.075, the log2 fold change [17] was inactive: -0.01 and the log2 fold change [18] was inactive: 0.071.
AAMP (UniProt Q13685) was tested, and the log2 fold change [1] was inactive: 0.027, the log2 fold change [2] was inactive: 0.115 and the log2 fold change [3] was inactive: -0.007. For the same target, the log2 fold change [4] was inactive: -0.006, the log2 fold change [5] was inactive: -0.047 and the log2 fold change [6] was inactive: -0.03. The log2 fold change [7] was inactive: -0.037, the log2 fold change [8] was inactive: 0.038 and the log2 fold change [9] was inactive: 0.011. The log2 fold change [10] was inactive: 0.014, the log2 fold change [11] was inactive: 0.009 and the log2 fold change [12] was inactive: 0.005. The log2 fold change [13] was inactive: 0.04, the log2 fold change [14] was inactive: 0.012 and the log2 fold change [15] was inactive: -0.038. The log2 fold change [16] was inactive: -0.028, the log2 fold change [17] was inactive: -0.026 and the log2 fold change [18] was inactive: 0.02.
With ABHD5 (UniProt Q8WTS1) the log2 fold change [1] was inactive: 0.052, the log2 fold change [2] was inactive: -0.066 and the log2 fold change [4] was inactive: -0.061. The log2 fold change [19] was inactive: 0.074, the log2 fold change [20] was inactive: 0.139 and the log2 fold change [6] was inactive: -0.134. For the same target, the log2 fold change [7] was inactive: 0.009, the log2 fold change [8] was inactive: -0.011 and the log2 fold change [9] was inactive: -0.114. The log2 fold change [13] was inactive: -0.202, the log2 fold change [15] was inactive: 0 and the log2 fold change [16] was inactive: 0.055. The log2 fold change [17] was inactive: 0.
With AAGAB (UniProt Q6PD74) the log2 fold change [1] was inactive: 0.097, the log2 fold change [2] was inactive: -0.134 and the log2 fold change [3] was inactive: -0.035. For the same target, the log2 fold change [4] was inactive: 0.084, the log2 fold change [5] was inactive: -0.026 and the log2 fold change [6] was inactive: 0.051. The log2 fold change [7] was inactive: 0.017, the log2 fold change [8] was inactive: -0.017 and the log2 fold change [9] was inactive: -0.046. The log2 fold change [10] was inactive: 0.016, the log2 fold change [11] was inactive: -0.077 and the log2 fold change [12] was inactive: -0.109. For the same target, the log2 fold change [13] was inactive: -0.161, the log2 fold change [14] was inactive: 0.008 and the log2 fold change [15] was inactive: -0.197. The log2 fold change [16] was inactive: -0.121, the log2 fold change [17] was inactive: -0.031 and the log2 fold change [18] was inactive: 0.017.
In the case of ACSL5 isoform 3 (UniProt Q9ULC5), the log2 fold change [1] is reported as inactive: -0.014, the log2 fold change [2] is reported as inactive: -0.146 and the log2 fold change [3] is reported as inactive: 0.11. For the same target, the log2 fold change [4] was inactive: 0.009, the log2 fold change [5] was inactive: 0.021 and the log2 fold change [6] was inactive: -0.033. The log2 fold change [7] was inactive: 0.059, the log2 fold change [8] was inactive: -0.316 and the log2 fold change [9] was active: -0.271. The log2 fold change [10] was inactive: -0.01, the log2 fold change [11] was inactive: -0.055 and the log2 fold change [12] was inactive: -0.06. For the same target, the log2 fold change [13] was inactive: 0.062, the log2 fold change [14] was inactive: 0.012 and the log2 fold change [15] was inactive: 0.066. The log2 fold change [16] was inactive: 0.007, the log2 fold change [17] was inactive: 0.043 and the log2 fold change [18] was inactive: -0.018.
In the case of ACBD6 (UniProt Q9BR61), the log2 fold change [1] is reported as active: 0.386, the log2 fold change [2] is reported as inactive: -0.36 and the log2 fold change [3] is reported as inactive: -0.041. The log2 fold change [4] was inactive: 0.075, the log2 fold change [5] was inactive: 0.076 and the log2 fold change [6] was inactive: 0.082. For the same target, the log2 fold change [7] was inactive: -0.048, the log2 fold change [8] was inactive: -0.14 and the log2 fold change [9] was inactive: -0.058. For the same target, the log2 fold change [10] was inactive: 0.063, the log2 fold change [11] was inactive: 0.017 and the log2 fold change [12] was inactive: -0.085. The log2 fold change [13] was inactive: -0.23, the log2 fold change [14] was inactive: 0.057 and the log2 fold change [15] was inactive: -0.053. For the same target, the log2 fold change [16] was inactive: 0.056, the log2 fold change [17] was inactive: -0.072 and the log2 fold change [18] was inactive: -0.085.
In the case of AARSD1 (UniProt Q9BTE6), the log2 fold change [2] is reported as inactive: -0.036, the log2 fold change [4] is reported as inactive: 0.033 and the log2 fold change [6] is reported as inactive: 0.026. For the same target, the log2 fold change [7] was inactive: -0.096, the log2 fold change [9] was inactive: 0.142 and the log2 fold change [11] was inactive: 0.029. For the same target, the log2 fold change [12] was inactive: -0.078, the log2 fold change [13] was inactive: -0.606 and the log2 fold change [14] was inactive: -0.012. For the same target, the log2 fold change [15] was inactive: 0.121, the log2 fold change [17] was inactive: -0.19 and the log2 fold change [18] was inactive: 0.066.
With ACAA2 (UniProt K7ER88) the log2 fold change [1] was inactive: -0.089, the log2 fold change [3] was inactive: 0.129 and the log2 fold change [9] was inactive: 0.058. For the same target, the log2 fold change [11] was inactive: -0.105, the log2 fold change [12] was inactive: -0.043 and the log2 fold change [14] was inactive: 0.022. The log2 fold change [17] was inactive: 0.098 and the log2 fold change [18] was inactive: -0.2.
ABCA7 (UniProt Q8IZY2) was tested, and the log2 fold change [1] was inactive: -0.091, the log2 fold change [3] was inactive: -0.324 and the log2 fold change [4] was inactive: -0.025. The log2 fold change [5] was inactive: 0.382, the log2 fold change [9] was inactive: -0.15 and the log2 fold change [10] was inactive: -0.196. The log2 fold change [11] was inactive: -0.17, the log2 fold change [12] was inactive: -0.153 and the log2 fold change [14] was inactive: 0.17. For the same target, the log2 fold change [15] was inactive: -0.096.
In the case of ADAD1 (UniProt Q96M93), the log2 fold change [2] is reported as inactive: -0.005, the log2 fold change [4] is reported as inactive: 0.243 and the log2 fold change [19] is reported as inactive: 0.354. For the same target, the log2 fold change [5] was inactive: 0, the log2 fold change [20] was inactive: -0.053 and the log2 fold change [6] was inactive: -0.088. The log2 fold change [7] was inactive: 0.01, the log2 fold change [8] was inactive: -0.28 and the log2 fold change [9] was inactive: -0.085. For the same target, the log2 fold change [10] was inactive: -0.15, the log2 fold change [11] was inactive: -0.08 and the log2 fold change [12] was inactive: -0.037. The log2 fold change [13] was inactive: 0.056, the log2 fold change [14] was inactive: -0.109 and the log2 fold change [15] was inactive: -0.096. The log2 fold change [16] was inactive: 0.072 and the log2 fold change [18] was inactive: -0.002.
ABCA8 isoform 3 (UniProt O94911) was tested, and the log2 fold change [20] was inactive: -0.509 and the log2 fold change [9] was inactive: -0.093.
